The list is a part of this screen's results and no random one: it is rich in T/C values a quarter to a half above the control, in often repeated tests (any T/C) and in doses without a T/C. Further doses and runs are listed elsewhere. T/C: endpoint of the treated group in % of that of the vehicle group. Some entries give survivors of the animals treated and no T/C: the source holds a T/C of zero for them, seemingly a mark for toxic or unscored doses. Some survivor counts are full or nearly so, which does not show that the dose was tolerated: survival well below the control is almost never listed, so the zero probably covers shortened survival too. Survivors were counted at the toxicity check, usually on the fifth day, unless a day is given; later deaths do not show. Schedules are NCI's codes, read here as Q, the interval in days (D) or hours (H), X, the number of doses. Some entries hold several experiments; their values stand side by side, smallest first. Where survival is the endpoint, the PubChem record calls one and a half times the control and up active, and a quarter to a half above the control has no call in these data; cut-offs in other NCI protocols can differ. Some T/C values carry the count of animals alive at the toxicity check (mostly the fifth day); where none is given, no animal had died by that day.
Tested on: BDF1 mice, B16 melanoma s.c., survival/tumor T/C
Assay: NCI In Vivo Anticancer Drug Screen. Data for tumor model B16 Melanoma (subcutaneous) in B6D2F1 (BDF1) mice
Method: The antitumor activity of compounds was measured in mice bearing transplantable tumors. Survival or tumor size were measured and the results are expressed as the measurement made in the treated group (T) divided by the measurement made in the vehicle treated control group (C). The tumor model used in this assay is B16 Melanoma (subcutaneous) in B6D2F1 (BDF1) mice

N=[N+]=CC(=O)CCC(NC(=O)C(CCC(=O)C=[N+]=N)NC(=O)CCC(N)C(=O)O)C(=O)O (stereo not drawn)
survivor count (T/C endpoint: median survival time, dose: 0.2 mg/kg/injection, schedule: Q01DX009 (ip), vehicle: saline, higher T/C = longer survival): 10 of 10
survivor count (T/C endpoint: median survival time, dose: 0.4 mg/kg/injection, schedule: Q01DX009 (ip), vehicle: saline, higher T/C = longer survival): 10 of 10
survivor count (T/C endpoint: median survival time, dose: 0.8 mg/kg/injection, schedule: Q01DX009 (ip), vehicle: saline, higher T/C = longer survival): 10 of 10
survivor count (T/C endpoint: median survival time, dose: 1.6 mg/kg/injection, schedule: Q01DX009 (ip), vehicle: saline, higher T/C = longer survival): 9 of 10
survivor count (T/C endpoint: median survival time, dose: 3.2 mg/kg/injection, schedule: Q01DX009 (ip), vehicle: saline, higher T/C = longer survival): 10 of 10
survivor count (T/C endpoint: median survival time, dose: 6.4 mg/kg/injection, schedule: Q01DX009 (ip), vehicle: saline, higher T/C = longer survival): 8 of 10
survivor count (T/C endpoint: median tumor weight (est.), dose: 0.4 mg/kg/injection, schedule: Q01DX009 (ip), vehicle: saline, higher T/C = larger tumour): 2 of 6

c1ccc([As+](c2ccccc2)(c2ccccc2)c2ccccc2)cc1
survivor count (T/C endpoint: median survival time, dose: 7.5 mg/kg/injection, schedule: Q01DX009 (ip), vehicle: Klucel (hydroxypropylcellulose) (HPC), higher T/C = longer survival): 8 of 10

OC(CCl)CN1CC[N+]2(CC1)CC[N+]1(CCN(CC(O)CCl)CC1)CC2 (stereo not drawn)
T/C (T/C endpoint: median survival time, dose: 134.0 mg/kg/injection, schedule: Q01DX009 (ip), vehicle: saline, higher T/C = longer survival): 125 % of control
T/C (T/C endpoint: median survival time, dose: 200.0 mg/kg/injection, schedule: Q01DX007 (ip), vehicle: saline, higher T/C = longer survival): 127 % of control

Cn1c(=O)[nH]c2nncnc2c1=O
T/C (T/C endpoint: median survival time, dose: 1.56 mg/kg/injection, schedule: Q01DX009 (ip), vehicle: water, higher T/C = longer survival): 125 and 133 % of control
T/C (T/C endpoint: median survival time, dose: 6.25 mg/kg/injection, schedule: Q01DX009 (ip), vehicle: water, higher T/C = longer survival): 144 % of control

COc1cccc2c1C(=O)c1c(O)c3c(c(O)c1C2=O)CC(O)(C(=O)CO)CC3OC1CC(N)C(O)C(C)O1 (stereo not drawn)
T/C (T/C endpoint: median survival time, dose: 11.7 mg/kg/injection, schedule: Q01DX009 (ip), vehicle: saline, higher T/C = longer survival): 125 % of control
T/C (T/C endpoint: median survival time, dose: 23.4 mg/kg/injection, schedule: Q01DX009 (ip), vehicle: saline, higher T/C = longer survival): 147 % of control
survivor count (T/C endpoint: median survival time, dose: 46.8 mg/kg/injection, schedule: Q01DX009 (ip), vehicle: saline, higher T/C = longer survival): 10 of 10

O=NN(CCF)C(=O)NC1CCS(=O)(=O)CC1
T/C (T/C endpoint: median survival time, dose: 43.0 mg/kg/injection, schedule: Q01DX001 (ip), vehicle: other, higher T/C = longer survival): 136 % of control [9 of 10 alive]

CCC(=O)OCC(=O)[C@]1(O)Cc2c(O)c3c(c(O)c2[C@@H](OC2CC(N)C(O)C(C)O2)C1)C(=O)c1c(OC)cccc1C3=O (stereo partly drawn)
survivor count (T/C endpoint: median survival time, dose: 2.0 mg/kg/injection, schedule: Q01DX009 (ip), vehicle: saline, higher T/C = longer survival): 10 of 10
survivor count (T/C endpoint: median survival time, dose: 4.0 mg/kg/injection, schedule: Q01DX009 (ip), vehicle: saline, higher T/C = longer survival): 10 of 10
survivor count (T/C endpoint: median survival time, dose: 8.0 mg/kg/injection, schedule: Q01DX009 (ip), vehicle: saline, higher T/C = longer survival): 10 of 10

CC1OC(=O)C(C(C)C)NC(=O)C(C(C)C)OC(=O)C(C(C)C)NC(=O)C(C)OC(=O)C(C(C)C)NC(=O)C(C(C)C)OC(=O)C(C(C)C)NC(=O)C(C)OC(=O)C(C(C)C)NC(=O)C(C(C)C)OC(=O)C(C(C)C)NC1=O (stereo not drawn)
survivor count (T/C endpoint: median survival time, dose: 20.0 mg/kg/injection, schedule: Q01DX001 (ip), vehicle: saline with Tween-80, higher T/C = longer survival): 10 of 10

CNc1nc(N(C)C)nc(N(C)C)n1
T/C (T/C endpoint: median survival time, dose: 100.0 mg/kg/injection, schedule: Q01DX009 (ip), vehicle: water, higher T/C = longer survival): 127 % of control
survivor count (T/C endpoint: median survival time, dose: 150.0 mg/kg/injection, schedule: Q01DX009 (ip), vehicle: water, higher T/C = longer survival): 10 of 10
survivor count (T/C endpoint: median survival time, dose: 335.0 mg/kg/injection, schedule: Q01DX001 (ip), vehicle: water, higher T/C = longer survival): 10 of 10
survivor count (T/C endpoint: median survival time, dose: 500.0 mg/kg/injection, schedule: Q01DX001 (ip), vehicle: water, higher T/C = longer survival): 0 of 10
survivor count (T/C endpoint: median survival time, dose: 750.0 mg/kg/injection, schedule: Q01DX001 (ip), vehicle: water, higher T/C = longer survival): 0 of 10

COc1cc2c(c(OC)c1OC)-c1ccc(OC)c(=O)cc1[C@@H](NC(C)=O)CC2
survivor count (T/C endpoint: median survival time, dose: 1000.0 micrograms/kg/injection, schedule: Q01DX009 (ip), vehicle: saline, higher T/C = longer survival): 10 of 10

Cc1c(N)nc(C(CC(N)=O)NCC(N)C(N)=O)nc1C(=O)NC(C(=O)NC(C)C(O)C(C)C(=O)NC(C(=O)NCCc1nc(-c2nc(C(=O)NCCCNC(C)c3ccccc3)cs2)cs1)C(C)O)C(OC1OC(CO)C(O)C(O)C1OC1OC(CO)C(O)C(OC(N)=O)C1O)c1cnc[nH]1 (stereo not drawn)
T/C (T/C endpoint: median survival time, dose: 0.5 mg/kg/injection, schedule: Q01DX009 (ip), vehicle: water, higher T/C = longer survival): 135 % of control [11 of 12 alive]
T/C (T/C endpoint: median survival time, dose: 1.0 mg/kg/injection, schedule: Q01DX009 (ip), vehicle: water, higher T/C = longer survival): 134 % of control [9 of 10 alive]
survivor count (T/C endpoint: median survival time, dose: 8.0 mg/kg/injection, schedule: Q01DX009 (ip), vehicle: water, higher T/C = longer survival): 12 of 12

CCN(CC)CCNc1ccc(CO)c2sc3ccccc3c(=O)c12
T/C (T/C endpoint: median survival time, dose: 50.0 mg/kg/injection, schedule: Q01DX005 (ip), vehicle: water, higher T/C = longer survival): 130 % of control
T/C (T/C endpoint: median survival time, dose: 75.0 mg/kg/injection, schedule: Q01DX005 (ip), vehicle: water, higher T/C = longer survival): 126 % of control
survivor count (T/C endpoint: median survival time, dose: 200.0 mg/kg/injection, schedule: Q04DX003 (ip), vehicle: water, higher T/C = longer survival): 3 of 10
survivor count (T/C endpoint: median survival time, dose: 300.0 mg/kg/injection, schedule: Q01DX001 (ip), vehicle: water, higher T/C = longer survival): 3 of 10
survivor count (T/C endpoint: median survival time, dose: 300.0 mg/kg/injection, schedule: Q04DX003 (ip), vehicle: water, higher T/C = longer survival): 1 of 10
survivor count (T/C endpoint: median survival time, dose: 450.0 mg/kg/injection, schedule: Q01DX001 (ip), vehicle: water, higher T/C = longer survival): 0 of 10
survivor count (T/C endpoint: median survival time, dose: 450.0 mg/kg/injection, schedule: Q04DX003 (ip), vehicle: water, higher T/C = longer survival): 0 of 10
survivor count (T/C endpoint: median survival time, dose: 675.0 mg/kg/injection, schedule: Q01DX001 (ip), vehicle: water, higher T/C = longer survival): 0 of 10

CC(C)[C@](O)(C(=O)OCC1=CC[N+]2([O-])CC[C@@H](O)[C@@H]12)[C@H](C)O (stereo partly drawn)
T/C (T/C endpoint: median survival time, dose: 400.0 mg/kg/injection, schedule: Q01DX009 (ip), vehicle: water, higher T/C = longer survival): 133 % of control

CN[C@H]1CCc2cc(OC)c(OC)c(OC)c2-c2ccc(OC)c(=O)cc21
T/C (T/C endpoint: median survival time, dose: 5.0 mg/kg/injection, schedule: Q01DX009 (ip), vehicle: saline, higher T/C = longer survival): 133 % of control
survivor count (T/C endpoint: median survival time, dose: 20.0 mg/kg/injection, schedule: Q01DX009 (ip), vehicle: saline, higher T/C = longer survival): 10 of 10

O=C(O)CCCCC1CCSS1 (stereo not drawn)
T/C (T/C endpoint: median survival time, dose: 31.25 mg/kg/injection, schedule: Q01DX009 (ip), vehicle: Klucel (hydroxypropylcellulose) (HPC), evaluated on day 29, higher T/C = longer survival): 104 % of control [7 of 8 alive on day 29]
T/C (T/C endpoint: median survival time, dose: 31.25 mg/kg/injection, schedule: Q01DX009 (ip), vehicle: Klucel (hydroxypropylcellulose) (HPC), evaluated on day 59, higher T/C = longer survival): 92 % of control
T/C (T/C endpoint: median survival time, dose: 31.25 mg/kg/injection, schedule: Q01DX009 (ip), vehicle: Klucel (hydroxypropylcellulose) (HPC), evaluated on day 60, higher T/C = longer survival): 93 and 139 % of control
T/C (T/C endpoint: median survival time, dose: 62.5 mg/kg/injection, schedule: Q01DX009 (ip), vehicle: Klucel (hydroxypropylcellulose) (HPC), evaluated on day 29, higher T/C = longer survival): 87 % of control [7 of 8 alive on day 29]
T/C (T/C endpoint: median survival time, dose: 62.5 mg/kg/injection, schedule: Q01DX009 (ip), vehicle: Klucel (hydroxypropylcellulose) (HPC), evaluated on day 59, higher T/C = longer survival): 94 % of control [9 of 10 alive on day 59]
T/C (T/C endpoint: median survival time, dose: 62.5 mg/kg/injection, schedule: Q01DX009 (ip), vehicle: Klucel (hydroxypropylcellulose) (HPC), evaluated on day 60, higher T/C = longer survival): 86 [7 of 8 alive] and 97 % of control
survivor count (T/C endpoint: median survival time, dose: 250.0 mg/kg/injection, schedule: Q01DX009 (ip), vehicle: Klucel (hydroxypropylcellulose) (HPC), higher T/C = longer survival): 0 of 8 and 0 of 8 on day 29
survivor count (T/C endpoint: median survival time, dose: 500.0 mg/kg/injection, schedule: Q01DX009 (ip), vehicle: Klucel (hydroxypropylcellulose) (HPC), higher T/C = longer survival): 0 of 8 and 0 of 8 on day 29

CCC1(O)CC2CN(CCc3c([nH]c4ccccc34)C(C(=O)OC)(c3cc4c(cc3OC)N(C)C3C(O)(C(N)=O)C(O)C5(CC)C=CCN6CCC43C65)C2)C1 (stereo not drawn) (tested in a mixture with another compound)
survivor count (T/C endpoint: median survival time, dose: 2.7 mg/kg/injection, schedule: Q04DX003 (ip), vehicle: water, higher T/C = longer survival): 10 of 10
survivor count (T/C endpoint: median survival time, dose: 4.0 mg/kg/injection, schedule: Q04DX003 (ip), vehicle: water, higher T/C = longer survival): 10 of 10
survivor count (T/C endpoint: median survival time, dose: 6.0 mg/kg/injection, schedule: Q04DX003 (ip), vehicle: water, higher T/C = longer survival): 10 of 10

CC(=O)Oc1ccccc1C(=O)O
T/C (T/C endpoint: median survival time, dose: 16.0 mg/kg/injection, schedule: Q01DX009 (ip), vehicle: saline, higher T/C = longer survival): 125 % of control
survivor count (T/C endpoint: median survival time, dose: 128.0 mg/kg/injection, schedule: Q01DX009 (ip), vehicle: saline, higher T/C = longer survival): 10 of 10

Source: PubChem BioAssay AID194 (DTP/NCI, 2004)
